Laboratory results from the supplement of paper PMC10849652.
The other results are listed elsewhere or left out.

By UniProt entry, the sequences of proteins in these tests, tags left out. Where a name states a change or a piece, a line headed by the entry shows the natural chain unless it says otherwise.
UniProt Q13242, whole entry, looked up: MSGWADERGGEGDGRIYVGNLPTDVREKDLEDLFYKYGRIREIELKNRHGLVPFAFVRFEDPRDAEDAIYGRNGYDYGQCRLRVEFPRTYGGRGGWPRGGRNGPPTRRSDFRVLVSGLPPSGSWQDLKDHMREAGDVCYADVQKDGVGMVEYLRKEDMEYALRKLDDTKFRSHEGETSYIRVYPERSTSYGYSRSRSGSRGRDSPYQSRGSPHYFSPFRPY
UniProt Q9GZT4: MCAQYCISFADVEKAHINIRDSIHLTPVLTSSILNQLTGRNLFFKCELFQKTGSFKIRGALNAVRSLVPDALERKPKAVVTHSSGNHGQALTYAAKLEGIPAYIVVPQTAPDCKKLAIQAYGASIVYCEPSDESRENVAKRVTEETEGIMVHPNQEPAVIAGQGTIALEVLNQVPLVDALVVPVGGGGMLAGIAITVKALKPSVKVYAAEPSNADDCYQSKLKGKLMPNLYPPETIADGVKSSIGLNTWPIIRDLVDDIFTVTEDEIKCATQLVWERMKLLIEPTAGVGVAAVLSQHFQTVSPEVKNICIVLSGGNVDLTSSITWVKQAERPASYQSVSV
UniProt P35270: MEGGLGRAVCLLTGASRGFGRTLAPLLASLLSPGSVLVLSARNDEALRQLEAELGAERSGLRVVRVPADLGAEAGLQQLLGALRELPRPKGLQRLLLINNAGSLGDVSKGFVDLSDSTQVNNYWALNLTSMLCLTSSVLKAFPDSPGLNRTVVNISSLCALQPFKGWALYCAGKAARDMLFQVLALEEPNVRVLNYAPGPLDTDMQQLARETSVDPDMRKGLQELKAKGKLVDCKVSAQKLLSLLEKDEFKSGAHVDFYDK
UniProt Q13247: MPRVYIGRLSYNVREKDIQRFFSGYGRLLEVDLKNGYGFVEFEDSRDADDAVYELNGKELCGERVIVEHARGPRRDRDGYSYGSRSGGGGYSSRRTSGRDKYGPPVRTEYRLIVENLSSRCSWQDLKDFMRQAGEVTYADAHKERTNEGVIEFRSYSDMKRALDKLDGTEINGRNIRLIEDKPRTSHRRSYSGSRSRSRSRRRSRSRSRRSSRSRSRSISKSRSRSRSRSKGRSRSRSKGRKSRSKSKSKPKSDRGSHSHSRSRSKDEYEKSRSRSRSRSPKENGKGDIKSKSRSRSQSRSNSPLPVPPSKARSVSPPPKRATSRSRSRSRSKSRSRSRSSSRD
UniProt Q05519: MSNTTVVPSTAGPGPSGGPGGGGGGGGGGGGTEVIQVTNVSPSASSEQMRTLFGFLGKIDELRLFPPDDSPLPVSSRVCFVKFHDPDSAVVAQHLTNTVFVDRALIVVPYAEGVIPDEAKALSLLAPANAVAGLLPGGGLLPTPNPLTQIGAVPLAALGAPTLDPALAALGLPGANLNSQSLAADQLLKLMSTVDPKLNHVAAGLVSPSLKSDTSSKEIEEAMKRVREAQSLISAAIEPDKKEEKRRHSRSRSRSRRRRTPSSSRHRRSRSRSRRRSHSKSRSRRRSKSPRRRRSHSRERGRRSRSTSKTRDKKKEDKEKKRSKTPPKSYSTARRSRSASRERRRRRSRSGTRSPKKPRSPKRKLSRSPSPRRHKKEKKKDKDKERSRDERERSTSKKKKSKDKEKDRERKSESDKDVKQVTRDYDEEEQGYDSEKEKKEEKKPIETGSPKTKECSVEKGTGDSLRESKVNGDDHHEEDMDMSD
UniProt O75494: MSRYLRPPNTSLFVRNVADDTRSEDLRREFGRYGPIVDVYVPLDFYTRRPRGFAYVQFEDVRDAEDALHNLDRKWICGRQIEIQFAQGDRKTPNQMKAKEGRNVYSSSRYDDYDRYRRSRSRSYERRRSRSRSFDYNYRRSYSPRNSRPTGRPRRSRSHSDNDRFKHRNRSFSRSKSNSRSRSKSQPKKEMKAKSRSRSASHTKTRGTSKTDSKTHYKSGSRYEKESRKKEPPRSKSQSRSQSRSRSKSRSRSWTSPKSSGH
UniProt P15907: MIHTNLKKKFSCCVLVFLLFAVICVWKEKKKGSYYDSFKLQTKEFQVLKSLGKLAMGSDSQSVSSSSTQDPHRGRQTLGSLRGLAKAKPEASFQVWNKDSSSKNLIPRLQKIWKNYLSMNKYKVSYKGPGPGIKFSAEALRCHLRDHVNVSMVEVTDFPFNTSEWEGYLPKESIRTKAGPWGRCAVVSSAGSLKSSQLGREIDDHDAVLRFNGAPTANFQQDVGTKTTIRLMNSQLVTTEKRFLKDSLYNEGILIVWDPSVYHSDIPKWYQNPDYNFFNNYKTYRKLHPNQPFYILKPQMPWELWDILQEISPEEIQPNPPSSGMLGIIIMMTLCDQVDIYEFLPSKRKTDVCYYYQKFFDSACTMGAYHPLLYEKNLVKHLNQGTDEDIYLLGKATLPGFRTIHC
UniProt Q9BWW4: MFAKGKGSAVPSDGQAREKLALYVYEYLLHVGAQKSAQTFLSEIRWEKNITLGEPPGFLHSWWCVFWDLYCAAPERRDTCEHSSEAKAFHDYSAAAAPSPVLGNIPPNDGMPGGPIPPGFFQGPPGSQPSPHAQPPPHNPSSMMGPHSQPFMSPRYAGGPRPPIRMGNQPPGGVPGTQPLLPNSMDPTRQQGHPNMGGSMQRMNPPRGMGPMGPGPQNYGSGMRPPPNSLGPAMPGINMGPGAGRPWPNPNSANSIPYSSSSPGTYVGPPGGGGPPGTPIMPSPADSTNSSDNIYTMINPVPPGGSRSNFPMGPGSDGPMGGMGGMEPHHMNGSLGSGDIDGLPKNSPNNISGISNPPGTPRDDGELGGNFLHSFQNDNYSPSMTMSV
UniProt P08240: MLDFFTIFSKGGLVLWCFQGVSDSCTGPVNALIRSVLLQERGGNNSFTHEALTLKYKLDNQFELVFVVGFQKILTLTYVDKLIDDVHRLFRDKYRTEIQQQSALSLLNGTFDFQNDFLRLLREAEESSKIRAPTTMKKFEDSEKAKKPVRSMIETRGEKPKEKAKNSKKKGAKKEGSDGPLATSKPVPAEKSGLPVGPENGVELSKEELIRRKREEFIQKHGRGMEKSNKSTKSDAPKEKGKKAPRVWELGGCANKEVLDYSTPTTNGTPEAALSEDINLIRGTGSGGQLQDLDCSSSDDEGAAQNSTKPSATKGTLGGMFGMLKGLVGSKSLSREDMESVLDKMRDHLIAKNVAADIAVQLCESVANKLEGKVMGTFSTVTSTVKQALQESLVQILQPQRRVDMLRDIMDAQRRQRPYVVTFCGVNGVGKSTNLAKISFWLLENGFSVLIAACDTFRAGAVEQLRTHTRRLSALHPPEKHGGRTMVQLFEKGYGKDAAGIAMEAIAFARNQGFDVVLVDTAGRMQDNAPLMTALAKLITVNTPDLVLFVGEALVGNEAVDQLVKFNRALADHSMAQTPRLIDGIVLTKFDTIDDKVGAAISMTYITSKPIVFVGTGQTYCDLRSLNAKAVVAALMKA
UniProt Q9BWG4: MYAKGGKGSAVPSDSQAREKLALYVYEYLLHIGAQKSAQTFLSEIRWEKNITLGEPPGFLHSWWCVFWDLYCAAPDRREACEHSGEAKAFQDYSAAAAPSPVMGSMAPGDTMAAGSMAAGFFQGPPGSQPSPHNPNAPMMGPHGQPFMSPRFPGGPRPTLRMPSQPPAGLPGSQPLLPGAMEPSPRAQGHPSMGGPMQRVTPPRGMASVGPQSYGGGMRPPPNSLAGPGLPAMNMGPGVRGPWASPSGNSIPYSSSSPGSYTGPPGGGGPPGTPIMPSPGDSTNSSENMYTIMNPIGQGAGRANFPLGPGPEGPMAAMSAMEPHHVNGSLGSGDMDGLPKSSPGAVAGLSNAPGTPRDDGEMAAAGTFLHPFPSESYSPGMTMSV
UniProt Q9BYN0: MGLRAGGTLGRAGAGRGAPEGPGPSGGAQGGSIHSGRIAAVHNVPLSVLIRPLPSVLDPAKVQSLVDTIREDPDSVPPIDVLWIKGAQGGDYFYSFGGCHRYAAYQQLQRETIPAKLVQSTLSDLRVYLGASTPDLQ
UniProt Q08945, whole entry, looked up: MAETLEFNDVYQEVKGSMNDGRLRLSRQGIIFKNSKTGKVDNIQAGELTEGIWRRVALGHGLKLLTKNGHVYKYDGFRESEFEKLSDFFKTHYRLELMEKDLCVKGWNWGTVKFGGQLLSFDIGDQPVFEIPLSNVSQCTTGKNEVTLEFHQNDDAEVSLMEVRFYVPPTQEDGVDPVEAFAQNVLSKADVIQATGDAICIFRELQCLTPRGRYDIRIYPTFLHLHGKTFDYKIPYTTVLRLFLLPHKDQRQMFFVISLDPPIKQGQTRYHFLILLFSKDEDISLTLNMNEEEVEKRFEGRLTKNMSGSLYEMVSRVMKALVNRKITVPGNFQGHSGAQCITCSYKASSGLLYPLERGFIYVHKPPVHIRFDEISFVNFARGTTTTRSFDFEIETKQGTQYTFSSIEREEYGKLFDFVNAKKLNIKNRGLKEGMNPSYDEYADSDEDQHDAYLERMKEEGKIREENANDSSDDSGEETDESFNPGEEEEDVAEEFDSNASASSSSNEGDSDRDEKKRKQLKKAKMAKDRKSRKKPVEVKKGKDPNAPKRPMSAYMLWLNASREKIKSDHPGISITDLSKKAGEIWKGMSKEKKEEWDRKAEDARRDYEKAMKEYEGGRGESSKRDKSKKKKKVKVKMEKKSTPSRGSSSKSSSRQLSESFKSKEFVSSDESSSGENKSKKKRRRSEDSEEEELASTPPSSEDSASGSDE
UniProt Q12772: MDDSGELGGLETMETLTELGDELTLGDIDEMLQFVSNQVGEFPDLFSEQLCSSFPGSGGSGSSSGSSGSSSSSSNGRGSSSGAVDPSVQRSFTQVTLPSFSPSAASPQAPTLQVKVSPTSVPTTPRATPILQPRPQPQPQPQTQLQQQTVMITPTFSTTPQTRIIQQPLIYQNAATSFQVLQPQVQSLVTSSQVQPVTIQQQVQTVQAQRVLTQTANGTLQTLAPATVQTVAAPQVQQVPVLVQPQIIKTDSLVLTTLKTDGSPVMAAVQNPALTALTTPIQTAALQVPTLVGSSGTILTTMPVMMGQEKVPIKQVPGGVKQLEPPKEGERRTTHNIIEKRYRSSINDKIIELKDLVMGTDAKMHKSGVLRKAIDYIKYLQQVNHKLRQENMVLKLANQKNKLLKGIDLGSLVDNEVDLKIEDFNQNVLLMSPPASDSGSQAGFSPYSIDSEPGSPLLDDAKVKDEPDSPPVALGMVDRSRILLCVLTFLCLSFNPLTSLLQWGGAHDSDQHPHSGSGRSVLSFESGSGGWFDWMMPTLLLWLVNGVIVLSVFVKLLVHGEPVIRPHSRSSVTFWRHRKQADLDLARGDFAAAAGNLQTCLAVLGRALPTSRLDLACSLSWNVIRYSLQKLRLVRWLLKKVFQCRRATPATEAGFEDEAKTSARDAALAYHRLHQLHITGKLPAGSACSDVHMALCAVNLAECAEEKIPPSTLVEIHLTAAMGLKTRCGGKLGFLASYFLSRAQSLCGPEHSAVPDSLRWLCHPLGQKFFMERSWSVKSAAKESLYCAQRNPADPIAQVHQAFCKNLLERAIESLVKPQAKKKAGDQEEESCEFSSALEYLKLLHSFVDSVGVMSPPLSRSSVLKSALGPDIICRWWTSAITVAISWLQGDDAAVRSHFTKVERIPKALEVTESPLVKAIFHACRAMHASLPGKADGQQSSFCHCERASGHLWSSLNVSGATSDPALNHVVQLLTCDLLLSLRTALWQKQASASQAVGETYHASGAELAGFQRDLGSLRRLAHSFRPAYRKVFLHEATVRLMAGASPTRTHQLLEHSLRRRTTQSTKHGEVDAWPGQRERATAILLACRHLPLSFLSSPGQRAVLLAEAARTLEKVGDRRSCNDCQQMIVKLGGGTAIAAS
UniProt Q9NQZ5: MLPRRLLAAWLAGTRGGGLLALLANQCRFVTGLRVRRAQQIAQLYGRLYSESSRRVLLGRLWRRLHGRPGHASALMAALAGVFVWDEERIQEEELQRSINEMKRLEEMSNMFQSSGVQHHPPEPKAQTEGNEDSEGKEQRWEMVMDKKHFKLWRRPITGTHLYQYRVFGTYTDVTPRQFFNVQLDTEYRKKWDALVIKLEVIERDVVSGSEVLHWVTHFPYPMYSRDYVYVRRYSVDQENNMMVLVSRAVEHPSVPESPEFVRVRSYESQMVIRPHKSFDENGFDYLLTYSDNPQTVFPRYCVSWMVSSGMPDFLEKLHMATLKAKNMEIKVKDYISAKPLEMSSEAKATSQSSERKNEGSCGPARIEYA
UniProt O00506, whole entry, looked up: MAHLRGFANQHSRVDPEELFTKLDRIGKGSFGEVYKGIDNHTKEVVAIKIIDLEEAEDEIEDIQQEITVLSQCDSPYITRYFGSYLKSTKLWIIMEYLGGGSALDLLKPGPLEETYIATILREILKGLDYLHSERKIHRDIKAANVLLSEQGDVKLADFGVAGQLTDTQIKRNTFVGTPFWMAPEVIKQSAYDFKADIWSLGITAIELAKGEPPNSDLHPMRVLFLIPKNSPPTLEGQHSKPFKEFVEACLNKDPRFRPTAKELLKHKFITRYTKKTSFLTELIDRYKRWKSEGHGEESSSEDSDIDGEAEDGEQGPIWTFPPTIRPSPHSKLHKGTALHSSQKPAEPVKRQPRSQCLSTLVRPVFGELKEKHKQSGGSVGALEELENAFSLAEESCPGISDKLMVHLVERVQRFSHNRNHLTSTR

Columns and labels:
Experiment in all cases: log2 fold change, soluble protein after heating vs DMSO (PISA); higher = thermal stabilisation; K562 cells, 10 uM, 30 min; active = over 0.2 and 3.5 SD of the protein, either way, in both replicates (recomputed)
[1] = compound: CS(=O)(=O)c1ccc(-c2cnc(N)c(C(=O)Nc3ccccc3)n2)cc1
Method in brief: (§1)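 Thermal stability values are relative to control samples and come from duplicates. They are expressed as log2 fold changes. For measurement, K562 cells (2×10^6 cells/mL) received 10 μM compound for 30 min, and aliquots were heated for 3 min over 48°C-58°C, pooled, and extracted at 4°C in PBS with 0.5% NP-40. Soluble protein, the supernatant after 21,000xg for 90 min, was quantified by TMTpro 16plex LC-MS/MS with equalised channel sums.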

crizotinib = compound: C[C@@H](Oc1cc(-c2cnn(C3CCNCC3)c2)cnc1N)c1c(Cl)ccc(F)c1Cl [crizotinib]
Method in brief: as §1

[2] = compound: C[C@@H]1COCCN1C2=NC(=NC(=C2)C3(CC3)S(=O)(=O)C)C4=C5C=CNC5=CC=C4
Method in brief: as §1

[3] = compound: C[C@H](C1=CC=C(C=C1)C(=O)NC2=C3C=CNC3=NC=C2)N
Method in brief: as §1

gandotinib = compound: Cc1cc(Nc2cc(CN3CCOCC3)c3nc(C)c(Cc4ccc(Cl)cc4F)n3n2)n[nH]1 [gandotinib]
Method in brief: as §1

[4] = compound: Cc1cc(SCc2sc(-c3ccc(C(F)(F)F)cc3)nc2C)ccc1OCC(=O)O
Method in brief: as §1

doramapimod = compound: Cc1ccc(-n2nc(C(C)(C)C)cc2NC(=O)Nc2ccc(OCCN3CCOCC3)c3ccccc23)cc1 [doramapimod]
Method in brief: as §1

ispinesib = compound: Cc1ccc(C(=O)N(CCCN)[C@@H](c2nc3cc(Cl)ccc3c(=O)n2Cc2ccccc2)C(C)C)cc1 [ispinesib]
Method in brief: as §1

bafetinib = compound: Cc1ccc(NC(=O)c2ccc(CN3CC[C@H](N(C)C)C3)c(C(F)(F)F)c2)cc1Nc1nccc(-c2cncnc2)n1 [bafetinib]
Method in brief: as §1

[5] = compound: Cc1cccc(CC(=O)N2CCc3c2ccc(-c2cn(C)c4ncnc(N)c24)c3F)n1
Method in brief: as §1

nilotinib = compound: Cc1cn(-c2cc(NC(=O)c3ccc(C)c(Nc4nccc(-c5cccnc5)n4)c3)cc(C(F)(F)F)c2)cn1 [nilotinib]
Method in brief: as §1

[6] = compound: Cc1nc(Nc2n[nH]c3c2CN(C(=O)N[C@H](CN(C)C)c2ccccc2)C3(C)C)c2sccc2n1
Method in brief: as §1

dasatinib = compound: Cc1nc(Nc2ncc(C(=O)Nc3c(C)cccc3Cl)s2)cc(N2CCN(CCO)CC2)n1 [dasatinib]
Method in brief: as §1

[7] = compound: Cc1ncc(-c2ccnc(Nc3ccc(S(C)(=O)=O)cc3)n2)n1C(C)C
Method in brief: as §1

[8] = compound: Cn1cc(-c2ccc3c(c2)CCN3C(=O)Cc2cccc(C(F)(F)F)c2)c2c(N)ncnc21
Method in brief: as §1

[9] = compound: Cn1cc(-c2ccc3nnc(C(F)(F)c4ccc5ncccc5c4)n3n2)cn1
Method in brief: as §1

tipifarnib = compound: Cn1cncc1[C@@](N)(c1ccc(Cl)cc1)c1ccc2c(c1)c(-c1cccc(Cl)c1)cc(=O)n2C [tipifarnib]
Method in brief: as §1

mubritinib = compound: FC(F)(F)c1ccc(/C=C/c2nc(COc3ccc(CCCCn4ccnn4)cc3)co2)cc1 [mubritinib]
Method in brief: as §1

duvelisib = compound: C[C@H](Nc1ncnc2nc[nH]c12)c1cc2cccc(Cl)c2c(=O)n1-c1ccccc1 [duvelisib]
Method in brief: as §1

tozasertib = compound: Cc1cc(Nc2cc(N3CCN(C)CC3)nc(Sc3ccc(NC(=O)C4CC4)cc3)n2)n[nH]1 [tozasertib]
Method in brief: as §1

| Target | log2 fold change [1] | log2 fold change (crizotinib) | log2 fold change [2] | log2 fold change [3] | log2 fold change (gandotinib) | log2 fold change [4] | log2 fold change (doramapimod) | log2 fold change (ispinesib) | log2 fold change (bafetinib) | log2 fold change [5] | log2 fold change (nilotinib) | log2 fold change [6] | log2 fold change (dasatinib) | log2 fold change [7] | log2 fold change [8] | log2 fold change [9] | log2 fold change (tipifarnib) | log2 fold change (mubritinib) | log2 fold change (duvelisib) | log2 fold change (tozasertib) |
| --- | --- | --- | --- | --- | --- | --- | --- | --- | --- | --- | --- | --- | --- | --- | --- | --- | --- | --- | --- | --- |
| SQSTM1 (UniProt Q13501) | inactive: 0.1 | inactive: -0.149 | inactive: -0.059 | inactive: 0.042 | inactive: 0.168 | inactive: -0.027 | inactive: 0.008 | inactive: -0.019 | inactive: -0.138 | inactive: 0.056 | inactive: 0.042 | inactive: -0.227 | inactive: -0.006 | inactive: 0.172 | inactive: 0.001 | inactive: 0.022 | inactive: 0.186 | inactive: 0.034 |  |  |
| SRSF9 (UniProt Q13242) | inactive: -0.11 | inactive: 0.058 | inactive: -0.539 | inactive: 0.389 | inactive: 0.4 | inactive: -0.048 | inactive: 0.26 | inactive: -0.255 | inactive: 0.166 | inactive: -0.02 | inactive: 0.014 | inactive: 0.05 | inactive: 0.422 | inactive: 0.001 | inactive: -0.377 | inactive: -0.129 | inactive: 0.298 | inactive: -0.189 |  |  |
| SRR (UniProt Q9GZT4) | inactive: -0.146 | inactive: -0.05 | inactive: 0.052 |  | inactive: -0.075 | inactive: 0.068 | inactive: 0.022 | inactive: -0.079 | inactive: -0.111 | inactive: -0.064 | inactive: 0.011 | inactive: 0.036 | inactive: -0.059 | inactive: -0.005 |  | inactive: 0.115 | inactive: 0.043 | inactive: -0.027 | inactive: 0.068 | inactive: -0.03 |
| SPR (UniProt P35270) | inactive: -0.006 | inactive: 0.125 | inactive: 0.058 | inactive: -0.059 | inactive: 0.288 | inactive: -0.025 | inactive: -0.05 | inactive: -0.103 | inactive: -0.062 | inactive: -0.102 | inactive: -0.04 | inactive: -0.012 | active: 0.467 | inactive: -0.029 | inactive: 0.144 | inactive: 0.298 | active: 0.499 | inactive: -0.083 |  |  |
| SRSF6 (UniProt Q13247) | inactive: -0.021 | inactive: -0.09 | inactive: -0.195 | inactive: 0.03 | inactive: -0.043 | inactive: 0.059 | inactive: -0.047 |  | inactive: 0.578 | inactive: 0.192 | inactive: 0.155 | active: -0.813 | inactive: 0.079 | inactive: 0.095 | inactive: -0.251 |  | inactive: 0.212 | inactive: -0.014 |  |  |
| SRSF11 (UniProt Q05519) | inactive: -0.037 | inactive: 0.015 | inactive: 0.045 | active: -0.277 | inactive: -0.068 | inactive: 0.067 | inactive: -0.015 | inactive: 0.08 | inactive: 0.071 | inactive: 0.105 | inactive: -0.024 | active: -1.01 | inactive: -0.034 | inactive: -0.001 | inactive: -0.078 | inactive: 0.015 | inactive: -0.029 | inactive: -0.01 |  |  |
| SRSF10 (UniProt O75494) | inactive: -0.176 | inactive: 0.153 | inactive: -0.539 | inactive: 0.259 | inactive: 0.183 | inactive: 0.036 | inactive: 0.222 | inactive: -0.172 | inactive: 0.044 | inactive: -0.1 | inactive: 0.089 | inactive: -0.079 | inactive: 0.336 | inactive: 0.076 | inactive: -0.498 | inactive: -0.173 | inactive: 0.215 | inactive: -0.089 |  |  |
| ST6GAL1 (UniProt P15907) | inactive: -0.064 | inactive: -0.189 | inactive: -0.005 | inactive: 0.037 | inactive: 0.014 | inactive: 0.018 | inactive: 0.083 | inactive: 0.002 | inactive: 0.001 | inactive: 0.029 | inactive: 0.168 | inactive: -0.048 | inactive: 0.131 | inactive: -0.001 | inactive: 0.007 | inactive: -0.02 | inactive: 0.128 | inactive: -0.023 |  |  |
| SSBP3 (UniProt Q9BWW4) | inactive: -0.066 |  | inactive: 0.188 | inactive: -0.147 | inactive: 0.043 | inactive: 0.009 |  | inactive: 0.199 | inactive: 0.037 | inactive: -0.063 | inactive: 0.003 | inactive: -0.016 | inactive: -0.001 | inactive: 0 | inactive: 0.112 | inactive: 0.145 | inactive: -0.092 | inactive: 0.021 | inactive: 0.071 | inactive: 0.016 |
| SRPRA (UniProt P08240) | inactive: 0.066 | inactive: 0.036 | inactive: 0.061 | inactive: 0.01 | inactive: -0.042 | inactive: 0.063 | inactive: -0.044 | inactive: 0.045 | inactive: 0.143 | inactive: 0.138 | inactive: 0.066 | inactive: 0.04 | inactive: -0.105 | inactive: 0.123 | inactive: 0.054 | inactive: -0.037 | inactive: -0.141 | active: 0.227 |  |  |
| SSBP4 (UniProt Q9BWG4) | inactive: -0.054 | inactive: -0.034 |  |  | inactive: -0.121 | inactive: 0.123 | inactive: 0.103 | inactive: 0.148 | inactive: -0.045 | inactive: -0.069 | inactive: 0.038 | inactive: 0.014 | inactive: -0.021 | inactive: 0.053 |  | inactive: 0.033 | inactive: 0.301 | inactive: 0.066 |  |  |
| SRXN1 (UniProt Q9BYN0) | inactive: 0.009 | inactive: -0.295 | inactive: 0.09 | inactive: -0.091 | inactive: 0.01 |  | inactive: 0.076 | inactive: -0.16 | inactive: -0.011 | inactive: -0.157 | inactive: -0.017 | inactive: -0.088 |  | inactive: 0.093 | inactive: 0.134 | inactive: 0.056 | inactive: -0.149 | inactive: 0.127 |  |  |
| SRRM2 (UniProt Q9UQ35) | inactive: -0.048 | inactive: -0.246 | inactive: 0.021 | inactive: -0.255 | inactive: -0.13 | inactive: 0.012 | inactive: 0.044 | inactive: -0.131 | inactive: 0.068 | inactive: 0.044 | inactive: 0.02 | active: -0.936 | inactive: 0.079 | inactive: -0.261 | inactive: 0.048 | inactive: 0.022 | inactive: 0.077 | inactive: 0.035 |  |  |
| SSRP1 (UniProt Q08945) | inactive: -0.024 | inactive: -0.018 | inactive: 0.144 | inactive: -0.088 | inactive: -0.029 | inactive: 0.072 | inactive: -0.027 | inactive: 0.048 | inactive: 0.007 | inactive: 0.015 | inactive: -0.025 | inactive: -0.175 | inactive: -0.059 | inactive: -0.075 | inactive: 0.03 | inactive: -0.033 | inactive: 0 | inactive: 0.009 |  |  |
| SREBF2 (UniProt Q12772) | inactive: 0.036 | inactive: 0.027 | inactive: 0.108 |  |  |  | inactive: -0.069 |  | inactive: -0.029 |  | inactive: -0.011 | inactive: -0.076 |  | inactive: 0.027 |  |  |  | inactive: -0.017 |  |  |
| STARD7 (UniProt Q9NQZ5) | inactive: 0.023 | inactive: -0.051 | inactive: 0.045 | inactive: -0.114 | inactive: -0.168 | inactive: 0.023 | inactive: 0.021 | inactive: -0.01 | inactive: -0.043 | inactive: 0.109 | inactive: -0.057 | inactive: 0.081 | inactive: -0.035 | inactive: 0.094 | inactive: 0.021 | inactive: -0.007 | inactive: -0.026 | inactive: 0.032 |  |  |
| STK25 (UniProt O00506) | inactive: 0.04 | inactive: -0.2 | inactive: -0.011 | inactive: -0.026 | inactive: -0.074 | inactive: -0.001 | inactive: 0.019 | inactive: -0.071 | inactive: -0.015 | inactive: -0.055 | inactive: -0.083 | active: 0.257 | inactive: -0.133 | inactive: -0.033 | inactive: 0.008 | inactive: 0.007 | inactive: 0.042 | inactive: -0.013 |  |  |
| SRPRB (UniProt Q9Y5M8) | inactive: -0.006 | inactive: 0.01 | inactive: 0.059 | inactive: -0.042 | inactive: 0.055 | inactive: 0.083 | inactive: -0.026 | inactive: 0.055 | inactive: 0.107 | inactive: 0.14 | inactive: 0.035 | inactive: 0.026 | inactive: -0.094 | inactive: 0.121 | inactive: 0.076 | inactive: 0.031 | inactive: -0.123 | inactive: 0.134 |  |  |

A different layout for some results above.
Target,log2 fold change [1],log2 fold change (crizotinib),log2 fold change [2],log2 fold change [3],log2 fold change (gandotinib),log2 fold change [4],log2 fold change (doramapimod),log2 fold change (ispinesib),log2 fold change (bafetinib),log2 fold change [5],log2 fold change (nilotinib),log2 fold change [6],log2 fold change (dasatinib),log2 fold change [7],log2 fold change [8],log2 fold change [9],log2 fold change (tipifarnib),log2 fold change (mubritinib),log2 fold change (duvelisib),log2 fold change (tozasertib)
SRRM2 (UniProt Q9UQ35),inactive: -0.048,inactive: -0.246,inactive: 0.021,inactive: -0.255,inactive: -0.13,inactive: 0.012,inactive: 0.044,inactive: -0.131,inactive: 0.068,inactive: 0.044,inactive: 0.02,active: -0.936,inactive: 0.079,inactive: -0.261,inactive: 0.048,inactive: 0.022,inactive: 0.077,inactive: 0.035,,
SSRP1 (UniProt Q08945),inactive: -0.024,inactive: -0.018,inactive: 0.144,inactive: -0.088,inactive: -0.029,inactive: 0.072,inactive: -0.027,inactive: 0.048,inactive: 0.007,inactive: 0.015,inactive: -0.025,inactive: -0.175,inactive: -0.059,inactive: -0.075,inactive: 0.03,inactive: -0.033,inactive: 0,inactive: 0.009,,
